Data from PubChem BioAssay AID493014 (National Center for Advancing Translational Sciences (NCATS), 2011).
About 170 (0.05%) of roughly 340,000 compounds were called active. Inconclusive results, whose numbers are uncertain, are shown with a selection of clear calls. Calls come from the whole dose curve; as a rule, active = well fitted inhibition curve with a large enough effect in the signal ratio, with a control signal flat (not every such curve was filed as active); inconclusive = small, poorly fitted or top-dose-only effect, or effect the other way, or a change in a side signal; inactive = flat fitted curve, though single readings scatter; the % refers to the signal ratio. Potencies of inconclusive entries are doubtful fits and often do not repeat.

test: qHTS Assay to Find Inhibitors of Chronic Active B-Cell Receptor Signaling; details: ABC-DLBCL IkBa-CBG/CBR reporter, luminescence ratio (green luciferase fused to IkBa over red control in TMD8 lymphoma cells), 4 h; activity change, negative = inhibition: at 46.1 µM (top of the series) unless noted;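 for activity change, negative = inhibition: plate controls were basal doxycycline-induced cells for no effect and cells given 10 µM MG132 for full effect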
Source text: NIH Molecular Libraries Probe Production Network [MLPCN] NIH Chemical Genomics Center [NCGC] MLPCN Grant: 1 R03 DA031086-01A1 PI Name: Dr. R. Eric Davis NCGC Assay Overview: Diffuse large B-cell lymphoma (DLBCL) is the most common category of non-Hodgkin lymphoma, with ~20,000 new cases per year in the United States. DLBCL should be regarded as a collection of different neoplasms. Microarray gene expression analysis has defined two principal types of DLBCL, named for their similarity to normal B cell stages or activation states: a germinal center B-cell (GCB) type, and an activated B-cell (ABC) type. In ABC-DLBCL, a constitutive high-level activity of the NF-kappaB family of transcription factors has been observed (1) and NF-kappaB target genes are more highly expressed in ABC primary tumors than in GCB tumors. Functional studies have shown a constitutive high-level activity of the IkappaB (inhibitor of kappa-B) kinase (IKK) complex. […] Further analysis of DLBCL primary tumors for NF-kappaB target gene expression imply that although CARD11 is required for constitutive IKK activity in all ABC-DLBCL lines, mutations in CARD11 may be the root cause of IKK activation only in lines or tumors with such mutations. In other words, CARD11 mutations may explain NF-kappaB activation in only 10% of ABC-DLBCL cases. […] This process has been termed 'chronic active BCR signaling' (CABS). The goal of this screen is to find small-molecule inhibitors of the CABS pathway found in ABC-DLBCL lines using a cell-based assay that measures IkappaBalpa stability, which has already been extensively validated in the OCI-Ly3 line (PubChem AID:445; REF: 4). […] The assay uses green (CBG68) and red (CBR) emitting beetle luciferases [Chroma-GloTM developed by Promega Corp.] where the green luciferase is fused to IkappaBalpha and the red luciferase is present in its native state. Both luciferase genes are stably present in the TMD8 human ABC DLBCL cell line, but their expression is under the control of tetracycline-inducible promoters. Following the addition of doxycycline to induce expression of the luciferases, the green luminescence in control cultures rises only slowly because the CBG fusion partner IkappaBalpha is targeted by IKK activity for rapid degradation. In contrast, green luminescence rises rapidly in the presence of proteasome inhibitors or IKK inhibitors. The rise in red luminescence of CBR is not affected by proteasome or IKK inhibitors, and serves as normalization for cell number and nonspecific effects. Compounds were screened as a concentration-titration series that ranged from 46 uM to 3 nM.
NCGC Assay Protocol Summary: Cells were seeded in 1536-well plates at 5000 cells/4uL in IMDM medium containing 0.5% FBS, w/o phenol red, 1% penicillin/streptomycin. Then, 23 nL of compounds or DMSO were delivered to each well using a pin tool. One uL 20ng/ml doxycycline was then dispensed into white solid 1536-well plates and the plates were incubated at 37C/5% C02 in a cell incubator for 4 hrs. Then 4 uL luminescent substrate mix (in-house prepared: 150 mM Tris-Cl, pH 7.6, 3 mM MgCl2, 1% Triton X-100, 5 mM DTT, 0.2 mM CoA, 0.15 mM ATP, 5 mM D-luciferin, final concentrations) was added to each well. The plate was incubated at r.t. for 10-15 min. The plates were measured on a ViewLux plate reader for green luminescence (540/20 nm filter) and red luminescence (618/8 nm filter). The green and red luminescent signals were corrected for red and green luminescence filter overlap using previously determined filter calibration constants (determined using the procedure outlined in the Promega Technical Manual; REF 4). The %Activity was determined from the ratio of corrected green/red luminescent values. MG132 were used as control. […] Red luminescent %Activity was normalized to the difference between red luminesence in basal cells (0%Activity) and zero luminescence (-100% Activity). […]
Potency is the fitted concentration of half-maximal effect.

| Structure (SMILES) | activity change, negative = inhibition | Potency |
| --- | --- | --- |
| CCCCCCn1nc(C(=O)N(CCOC)c2c(N)n(CCCC)c(=O)[nH]c2=O)c2ccccc2c1=O | inconclusive: 32% |  |
| COc1cc(NC(=O)CN2CCN(S(=O)(=O)c3ccc(C(C)C)cc3)CC2)cc(OC)c1 | inactive |  |
| C=CC[C@@H](CC(=O)N(CCO)Cc1ccccc1)C(=O)N[C@@H](COC(=O)[C@@H](CC=C)CC(=O)OC(C)(C)C)Cc1c[nH]c2ccccc12 | inconclusive: 4.03% |  |
| O=c1c(/C=C(\O)c2ccc(F)cc2)nc2ccccc2n1-c1ccccc1 |  | inconclusive: 1.16 µM [falling, full curve, poor fit] |
| CCn1c(=O)c2c3c(sc2n2cnnc12)CCC3 | inconclusive: 5.48% |  |
| CC(=O)C(N=Nc1ccccc1)(Sc1nnc(-c2ccccc2)n1-c1ccccc1)C(C)=O | inconclusive: 15.8% |  |
| COc1ccc(Cc2nnc(Cl)c3ccccc23)cc1OC | inconclusive: -12% |  |
| N=c1n(CCO)c2ccccc2n1Cc1ccc(Cl)cc1 | inconclusive: -1.71% |  |
| Cc1ccc(NC(=O)CSc2nc(=O)n(Cc3cccnc3)c3c2CCC3)cc1F | inconclusive: 27% |  |
| COc1ccc(OCC(=O)Nc2ccc3nc(C)sc3c2)cc1 | inconclusive: 2.51% |  |
| COc1ccc(C2Oc3ccccc3C3=C2C(c2cccs2)n2ncnc2N3)cc1 (configuration not stated) | inconclusive: 18.3% |  |
| COc1cc(-c2nnc(SCC(=O)Nc3ccc4c(c3)OCCO4)o2)cc(OC)c1OC | inactive |  |
| Fc1ccc(CNc2ncnc3cc(Cl)ccc23)cc1 | inactive |  |
| c1ccc2c(c1)oc1c(Nc3ccc(CN4CCOCC4)cc3)ncnc12 | inconclusive: -3.22% |  |
| CC(=O)Oc1ccc(N2C(=O)C3C(C2=O)C(C(=O)c2ccc(Cl)cc2)N2CCCC32)cc1 (configuration not stated) | inactive |  |
| Cc1ccc2nc(N(CCCN(C)C)C(=O)c3ccc(S(=O)(=O)N4CCCCCC4)cc3)sc2c1 | inconclusive: -0.184% |  |
| COc1ccc(CNC(=O)CN2C(=O)C3CCCN3c3ncc(Cl)cc32)cc1 (configuration not stated) | inconclusive: -13.3% |  |
| COc1ccc(C(=O)N/N=C/c2ccc(OC(=O)c3ccccc3)cc2)cc1 | inactive |  |
| O=C(OC1CCN(c2ncc(C(F)(F)F)cc2Cl)CC1)c1ccc(Cl)cc1 | inactive |  |
| O=S(=O)([N-]c1nc2ccccc2nc1-[n+]1ccc(Cc2ccccc2)cc1)c1ccc(Br)s1 | inconclusive: 15.3% |  |
| Cc1ccc(CN(c2ccc(C(=O)N3CCCC3)cc2)S(C)(=O)=O)cc1 | inconclusive: 0.589% |  |

| Structure (SMILES) | activity change, negative = inhibition | Potency |
| --- | --- | --- |
| CC1(C2(O)CC(c3ccccc3)ON2)CCCCC1 (configuration not stated) | inconclusive: 23.5% |  |
| COC(=O)C(C)C1Sc2ccccc2NC1=O (configuration not stated) | inconclusive: -1.43% |  |
| CCOc1ccc(OCc2ccc(C(=O)NN=Cc3ccc[nH]3)cc2)cc1 | inconclusive: -19.7% |  |
| Cc1cc(C)c(S(=O)(=O)c2ccccc2)c(OC(=O)c2c(F)cccc2F)n1 |  | inconclusive: 35.5 µM [falling, single point] |
| Cc1nc2sc(C(c3cccc(F)c3)N3CCCCC3)c(O)n2n1 (configuration not stated) | inconclusive: 0.419% |  |
| Cc1ccc(C)c(NC(=S)N2CCN(S(C)(=O)=O)CC2)c1 | inconclusive: -1.76% |  |
| Cc1ccc(C(=O)COC(=O)c2ccncc2)cc1[N+](=O)[O-] | inactive |  |
| O=C(NCC(=O)N1CCN(S(=O)(=O)c2ccccc2C(F)(F)F)CC1)c1sc2ccccc2c1Cl | inactive |  |
| NC(=O)c1ccccc1N/C=C/C(=O)c1ccc(Cl)cc1 |  | inconclusive: 25.9 µM [rising, single point] |
| CC(C)CCNC(=O)CN1C(=O)CSc2ccc(S(=O)(=O)N3CCC(C)CC3)cc21 | inactive |  |
| COc1ccc(C)cc1NC(=O)C(Sc1nnc(-c2ccncc2)n1-c1ccc(Cl)cc1)c1ccccc1 (configuration not stated) | inconclusive: 11.7% |  |
| Cc1ccc(C(=O)NC(=S)N2CCCCCC2)cc1 | inconclusive: 5.42% |  |
| CC(=O)c1ccc(N2CCN(C(=O)c3cc4c(-c5ccccc5F)nn(C)c4s3)CC2)cc1 | inconclusive: 19.6% |  |
| CC1(C)CC(=O)C(C=NCCc2ccccn2)=C(O)C1 | inconclusive: 3.73% |  |
| CC(NC(=O)c1ccccc1NC(=O)CSc1nnnn1C)c1ccccc1 (configuration not stated) |  | inconclusive: 29.1 µM [falling, single point] |
| O=C(N/N=C/c1cccnc1)c1ccccc1OCc1cccc(Br)c1 |  | inconclusive: 2 µM [falling, full curve, poor fit] |
| Cc1ccc(S(=O)(=O)/N=c2\sccn2C)cc1 | inconclusive: -108% |  |
| c1ccc2c(c1)COC(CNC1CCCCC1)OC2 | inconclusive: 3.73% |  |
| O=C(CSc1nnc2c(n1)[nH]c1ccccc12)Nc1ccc(N2CCOCC2)cc1 | inconclusive: -82.1% |  |
| CSc1ccc(OC2CCCCC2NS(=O)(=O)c2ccc(Cl)cc2)cc1 (configuration not stated) | inconclusive: 0.0314% |  |
| O=C(CSc1cn(Cc2ccccc2)c2ccccc12)Nc1nccs1 | inconclusive: 7.27% |  |

| Structure (SMILES) | activity change, negative = inhibition | Potency |
| --- | --- | --- |
| CCNC(=O)Nn1c(C)nnc1C | inconclusive: 3.84% |  |
| COc1ccc(-c2nn3c(C4CCCCC4)nnc3s2)cc1OC |  | active: 14.1 µM |
| c1ccc(-c2ncc(CN3CCN(c4ccccn4)CC3)[nH]2)cc1 | inconclusive: 0.118% |  |
| O=C(CCn1c(=O)oc2cc(Cl)ccc21)Nc1ccc(N2CCOCC2)cc1 | inactive |  |
| COc1ccc(CCNC(=O)CS(=O)(=O)c2cn(CC(=O)N(C(C)C)C(C)C)c3ccccc23)cc1OC | inconclusive: 0.27% |  |
| CC(=O)Nc1ccc(NC(=O)COc2c(C)cc(Br)cc2C)cc1 | inconclusive: 1.48% |  |
| Cc1nc2ccccc2cc1OCc1ccc(Cl)cc1 | inconclusive: 13.9% |  |
| COc1cc(C)c(COc2ncnc3ccccc23)cc1OC | inactive |  |
| CCCc1cc(C(=O)Nc2ccc(F)cc2F)no1 |  | inconclusive: 6.51 µM [rising, partial curve] |
| CC(=O)Nc1cccc(NC(=O)c2ccccc2OCc2ccccc2)c1 | inconclusive: -14.4% |  |
| COC(=O)/C=C1/S/C(=N/NC(=O)c2ccccc2OC)NC1=O |  | inconclusive: 22.4 µM [falling, single point] |
| COc1cc2c(cc1NC(=S)NC(=O)/C=C/c1ccco1)oc1ccccc12 | inconclusive: -6.53% |  |
| CC(=O)Oc1ccc(N2C(=O)C3C4C=CC(O4)C3C2=O)cc1 (configuration not stated) | inconclusive: 5.17% |  |
| COc1cc(/C=N/NS(=O)(=O)c2ccc(Br)cc2)ccc1O | inactive |  |
| COCCNC(=O)c1csc(Nc2cccc3ccccc23)n1 |  | inconclusive: 20 µM [falling, single point] |
| Clc1ccccc1C1=Nn2c(nnc2-c2ccncc2)SC1 | inconclusive: -5.34% |  |
| COCC1CCN(C(=O)c2cc(COc3ccc(C)c(C)c3)on2)C1 (configuration not stated) |  | inconclusive: 11.2 µM [falling, partial curve, poor fit] |
| COC(=O)c1c(NC(=O)COC(=O)[C@@H](NS(=O)(=O)c2cccc(Cl)c2)C(C)C)sc2c1CCC2 | inconclusive: -19% |  |
| Cc1nnsc1C(=O)N/N=C/c1ccc(OC(F)(F)F)cc1 | inactive |  |
| O=C1c2ccccc2C(=O)N1CC(O)Cn1nnc2ccccc21 (configuration not stated) | inconclusive: 0.772% |  |
| Cc1cccc(COc2ccc(/C=N/NC(=O)c3nnn(-c4nonc4N)c3COc3ccc(F)cc3)cc2)c1 | inactive |  |

Rewritten tab-delimited: part of the list above.
Structure (SMILES)	activity change, negative = inhibition	Potency
COc1cc(C)c(COc2ncnc3ccccc23)cc1OC	inactive	
CCCc1cc(C(=O)Nc2ccc(F)cc2F)no1		inconclusive: 6.51 µM [rising, partial curve]
CC(=O)Nc1cccc(NC(=O)c2ccccc2OCc2ccccc2)c1	inconclusive: -14.4%	

Further compounds follow.

| Structure (SMILES) | activity change, negative = inhibition | Potency |
| --- | --- | --- |
| Cc1nn(-c2ccccc2)c2c1C(c1ccc(O)c(O)c1)N1C(=N2)C(Nc2ccccc2)=Nc2ccccc21 (configuration not stated) | inactive |  |
| COCC(=O)NC1(c2nnnn2CCOC(=O)Nc2ccc(Cl)cc2)CCCCC1 |  | inconclusive: 2.24 µM [rising, partial curve, poor fit] |
| COC(=O)c1ccc(S(=O)(=O)c2ccccc2)c(N)c1 | inconclusive: -20.2% |  |
| Cc1ccc(C(=O)NC(=S)Nc2ccc(N3CCOCC3)cc2)cc1 | inconclusive: 12.1% |  |
| O=C(CCN1C(=O)/C(=C/c2ccc(F)cc2)SC1=S)NCCc1cnc[nH]1 | inconclusive: -17.9% |  |
| Cc1nn(Cc2cccc(F)c2)c(C)c1NC(=O)c1ccc(COc2ccccc2Cl)cc1 |  | inconclusive: 16.4 µM [falling, partial curve] |
| COc1ccc(-n2c(=O)c3ccccc3n(CC(=O)c3ccccc3)c2=O)cc1OC | inconclusive: 10.3% |  |
| COC(=O)c1ccc(NC(=S)NC2CCCCC2)cc1 | inconclusive: -0.862% |  |
| Cc1ccc(S(=O)(=O)N(C)C)cc1NC(=O)COC(=O)CCNS(=O)(=O)c1ccccc1 | inconclusive: 12.9% |  |
| O=C(/C=C/c1ccco1)Nc1ccccc1N1CCOCC1 | inconclusive: 0.0043% |  |
| COc1cccc(C(=O)NNS(=O)(=O)c2ccc(C)cc2)c1 |  | inconclusive: 35.5 µM [falling, single point] |
| COc1cc(Br)cc(/C=N/c2ncn[nH]2)c1O | inconclusive: 5.18% |  |
| CCOc1ccc(/C=N/Nc2ccccn2)cc1 | inconclusive: -5.75% |  |
| COC(=O)[C@H](CCSC)NC(=O)NCCc1ccccc1F | inconclusive: 22.6% |  |
| Cc1c(C)c2ccc(OCC(=O)Nc3ccccn3)cc2oc1=O | inconclusive: 4.08% |  |
| CC1CCCN(C(=O)CNC(=O)c2cccs2)C1 (configuration not stated) |  | inconclusive: 18.4 µM [falling, single point] |
| CCN(CC)c1nc2ccccc2nc1C(=O)Nc1ccc(C(C)=O)cc1 |  | inconclusive: 3.55 µM [falling, partial curve, poor fit] |
| CC(=O)N(C)c1ccc(OCC(O)Cn2c(C)nc3ccccc32)cc1 (configuration not stated) |  | inconclusive: 11.2 µM [falling, partial curve, poor fit] |
| Cc1cc(C(=O)Nc2ccccc2C(=O)N2CCCCC2)ccc1[N+](=O)[O-] | inconclusive: 1.23% |  |
